## Screening data, single-dose tests

The values are deposited in ChEMBL (CHEMBL3988442, “University of Dundee, Small-Polar-MMV Screening Library” (2021)).

Mtb cholesterol medium: 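Whole-cell growth test on Mycobacterium tuberculosis, read after 4 days in a medium based on cholesterol and the lipid DPPC; the read-out is not stated. Tested at 50 µM. The record gives no direction; compounds that gave an IC50 in retests scored well above the rest, so higher reads as more growth inhibition. Of about 69,000 compounds tested this way, about 370 (0.54%) reached 50% or more in at least one test.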
Mtb glucose medium: 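Growth of Mycobacterium tuberculosis over 3 days (7H9 medium with glucose and tyloxapol); the read-out is not stated. Concentration: 50 µM. Higher reads as more growth inhibition (inferred: compounds with an IC50 in retests scored well above the rest). Of about 69,000 compounds tested this way, about 760 (1.1%) reached 50% or more in at least one test.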

The filed quantity is “Percent Effect” (%).
The controls that fix the scale are not given in the record; negative values are as filed.
This is an unselected part of the compounds tested.
Two or more numbers in one place are separate tests of the same structure; such repeats can differ widely.

{"compound": "CN1CCN(c2ncc3c(=O)n(Cc4ccco4)ccc3n2)CC1", "Mtb cholesterol medium": 20.08, "Mtb glucose medium": 41.59}
{"compound": "CCn1cnnc1CN(C)C(=O)c1cc(COc2cccc(F)c2)[nH]n1", "Mtb cholesterol medium": -9.449, "Mtb glucose medium": "-16.62 and 2.188"}
{"compound": "CNC(=O)c1cc2c(nc1NCC(C)C)CCN(C)CC2.O=C(O)C(F)(F)F.O=C(O)C(F)(F)F", "Mtb cholesterol medium": "-0.3254 and 6.052", "Mtb glucose medium": "9.883 and -22.25"}
{"compound": "COCCCNC(=O)Cn1c(C)cc(=O)n2nc(-c3cccs3)nc12", "Mtb cholesterol medium": -15.9, "Mtb glucose medium": -24.59}
{"compound": "COc1ccccc1CN(Cc1nc2c(cnn2C)c(=O)[nH]1)C1CC1", "Mtb cholesterol medium": -32.41, "Mtb glucose medium": -30.15}
{"compound": "N[C@@H]1c2ccccc2C2(CCN(C(=O)c3cncc(Cl)c3)CC2)[C@H]1O", "Mtb cholesterol medium": 11.72, "Mtb glucose medium": -31.64}
{"compound": "CCS(=O)(=O)N1CCCC2(COCCN(c3nncs3)C2)C1", "stereo": "stereo unspecified", "Mtb cholesterol medium": 4.714, "Mtb glucose medium": 18.34}
{"compound": "C[C@@H]1CN(Cc2nc(C(N)=O)no2)CC[C@@]1(O)C1CCOCC1", "Mtb cholesterol medium": -13.08, "Mtb glucose medium": "-3.605 and -4.401"}
{"compound": "O=c1cc(-c2ccccc2)nc2n1CCCCC2", "Mtb cholesterol medium": -18.35, "Mtb glucose medium": -28.17}
{"compound": "CC(=O)N1CCCN(C(C(=O)O)c2ccc(C)cc2C)CC1", "stereo": "stereo unspecified", "Mtb cholesterol medium": -11.25, "Mtb glucose medium": 16.29}
{"compound": "CC1CCN(S(=O)(=O)NCC2CCOc3ccccc3C2)CC1", "stereo": "stereo unspecified", "Mtb cholesterol medium": -28.34, "Mtb glucose medium": -18.3}
{"compound": "Cn1cc(C[C@H]2[C@H](O)CCN2C(=O)c2ccsc2)cn1", "Mtb cholesterol medium": "20.12 and -5.929", "Mtb glucose medium": 3.059}
{"compound": "CC(=O)N1CCN(C(=O)C(C)Nc2ccc3ncsc3c2)CC1", "stereo": "stereo unspecified", "Mtb cholesterol medium": -26.82, "Mtb glucose medium": -1.261}
{"compound": "COCC(=O)Nc1ccnc(OCCN(C)C)c1", "Mtb cholesterol medium": -18.27, "Mtb glucose medium": "-7.094 and -15.32"}
{"compound": "c1cc(-c2nnc(C3(c4ccc5c(c4)OCO5)CCOCC3)o2)ccn1", "Mtb cholesterol medium": 2.035, "Mtb glucose medium": -8.162}
{"compound": "Cc1noc(C)c1CN1CCc2ncnc(-c3ccccc3)c2CC1.O=C(O)C(F)(F)F", "Mtb cholesterol medium": -2.234, "Mtb glucose medium": -26.05}
{"compound": "CC(C)c1nccn1C1CCCN(C(=O)c2nccnc2N)C1", "stereo": "stereo unspecified", "Mtb cholesterol medium": -18.08, "Mtb glucose medium": -19.54}
{"compound": "CN1CCN(Cc2noc(-c3cc(-c4ccccc4F)n[nH]3)n2)CC1", "Mtb cholesterol medium": -13.68, "Mtb glucose medium": -10.81}
{"compound": "Fc1ccc(OCCNCCn2cccn2)cc1", "Mtb cholesterol medium": -10.53, "Mtb glucose medium": -20.54}
{"compound": "CC(C)(C)c1c[nH]c([C@@H]2COCCN2C2CCNCC2)n1", "Mtb cholesterol medium": -9.463, "Mtb glucose medium": "0.08589 and -6.872"}
{"compound": "CCCNC(=O)CCNc1cncc(-n2nc(C)cc2C)n1", "Mtb cholesterol medium": -25.63, "Mtb glucose medium": -9.277}
{"compound": "O=C(c1ccno1)N1CCOC[C@H](Oc2ccccc2)C1", "Mtb cholesterol medium": -13.45, "Mtb glucose medium": "-38.2 and -1.883"}
{"compound": "Cc1nc(CN2CCCC(Cn3cncn3)C2)no1", "stereo": "stereo unspecified", "Mtb cholesterol medium": -31.76, "Mtb glucose medium": -20.86}
{"compound": "Cc1csc(C(C#N)C(=O)NCc2cccnc2)n1", "stereo": "stereo unspecified", "Mtb cholesterol medium": -1.386, "Mtb glucose medium": -17.96}
{"compound": "Cn1nc(CNC(=O)NCc2ccc(Cl)cc2)c2c1CCOC2", "Mtb cholesterol medium": 10.86, "Mtb glucose medium": 35.32}
{"compound": "O=C(O)c1cn(CC2CCCN(c3ccc4ccccc4n3)C2)nn1", "stereo": "stereo unspecified", "Mtb cholesterol medium": 4.371, "Mtb glucose medium": "24.62 and -4.938"}
{"compound": "Cc1cnn(CC2CCCCN2C(=O)c2cc(C(N)=O)cs2)c1", "stereo": "stereo unspecified", "Mtb cholesterol medium": -21.14, "Mtb glucose medium": -27.59}
{"compound": "Cc1cc(C)n(CC(=O)N2Cc3cnc(C(C)(C)C)nc3C2)n1", "Mtb cholesterol medium": -8.369, "Mtb glucose medium": 4.187}
{"compound": "CCC1c2cccn2CCN1C(=O)c1cc(OC)nc(OC)n1", "stereo": "stereo unspecified", "Mtb cholesterol medium": -48.89, "Mtb glucose medium": -78.14}
{"compound": "[H][C@]12CC[C@]([H])(CN(Cc3ccccc3C#N)C1)N(Cc1cscn1)C2=O", "Mtb cholesterol medium": 16.04, "Mtb glucose medium": -0.946}
{"compound": "[H][C@]12CCCC(N(C)Cc3ccccn3)[C@@]1([H])CN(c1ncc(CC)cn1)C2", "stereo": "stereo partly specified", "Mtb cholesterol medium": -4.437, "Mtb glucose medium": -12.56}
{"compound": "CC(=O)N(C)Cc1cccc(NC(=O)c2cnn(C)c2C)c1", "Mtb cholesterol medium": -33.02, "Mtb glucose medium": "16.59 and -34.78"}
{"compound": "Cc1ccoc1C(=O)NCCOc1ncc(Cl)cc1Cl", "Mtb cholesterol medium": "29.26 and 27.95", "Mtb glucose medium": 32.61}
{"compound": "CNC(=O)c1sc2ccccc2c1C1CCN(c2nc(C)cc(C)n2)C1", "stereo": "stereo unspecified", "Mtb cholesterol medium": -11.63, "Mtb glucose medium": -16.13}
{"compound": "CCc1[nH]ncc1C(=O)N1CCN(c2nccc(OC)n2)CC1", "Mtb cholesterol medium": -14.08, "Mtb glucose medium": "-5.483 and 5.337"}

For reference, 4 entries once more:

* CCCNC(=O)CCNc1cncc(-n2nc(C)cc2C)n1 | Mtb cholesterol medium: -25.63%; Mtb glucose medium: -9.277%
* Cc1nc(CN2CCCC(Cn3cncn3)C2)no1 (stereo unspecified) | Mtb cholesterol medium: -31.76%; Mtb glucose medium: -20.86%
* CC(=O)N(C)Cc1cccc(NC(=O)c2cnn(C)c2C)c1 | Mtb cholesterol medium: -33.02%; Mtb glucose medium: 16.59% and -34.78%
* C[C@@H]1CN(Cc2nc(C(N)=O)no2)CC[C@@]1(O)C1CCOCC1 | Mtb cholesterol medium: -13.08%; Mtb glucose medium: -3.605% and -4.401%